Literature values as cited in patent US20160303051A1, “Burst Drug Release Compositions” (Wyeth LLC, priority 2009, published 2016).
At least one read-out could not be matched to a standard name with certainty.

SMILES: CC(C)Cc1ccc(C(C)C(=O)O)cc1 (stereo not shown) [Ibuprofen, ibuprofen]
- permeability (BCS): high permeability
